Results on two molecules are retold here after patent publication US20090304718A1 (Boehringer Ingelheim, published 2009).

Protein sequences, listed by entry. Tags and fused reporters are not part of them. Residues count along the entry.
UniProt Q12884, residues 26-760: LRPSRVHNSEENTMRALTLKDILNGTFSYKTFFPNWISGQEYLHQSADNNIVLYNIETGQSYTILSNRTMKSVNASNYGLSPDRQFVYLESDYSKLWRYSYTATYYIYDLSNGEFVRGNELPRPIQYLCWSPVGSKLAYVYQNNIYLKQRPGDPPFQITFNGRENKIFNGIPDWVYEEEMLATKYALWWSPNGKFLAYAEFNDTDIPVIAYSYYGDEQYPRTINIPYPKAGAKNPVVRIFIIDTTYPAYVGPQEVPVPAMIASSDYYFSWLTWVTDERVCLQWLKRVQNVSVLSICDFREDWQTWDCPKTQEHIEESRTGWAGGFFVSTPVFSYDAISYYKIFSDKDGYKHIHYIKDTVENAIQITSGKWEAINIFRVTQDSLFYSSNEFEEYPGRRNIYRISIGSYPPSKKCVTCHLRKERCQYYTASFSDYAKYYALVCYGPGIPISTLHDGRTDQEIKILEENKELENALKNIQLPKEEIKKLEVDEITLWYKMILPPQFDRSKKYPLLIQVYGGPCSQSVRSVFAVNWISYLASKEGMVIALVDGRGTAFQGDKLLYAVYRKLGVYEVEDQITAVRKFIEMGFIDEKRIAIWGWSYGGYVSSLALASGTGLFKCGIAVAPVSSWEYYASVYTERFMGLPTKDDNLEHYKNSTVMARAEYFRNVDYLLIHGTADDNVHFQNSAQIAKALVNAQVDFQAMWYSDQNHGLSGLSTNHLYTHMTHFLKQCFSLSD

This assay has as its target recombinant human FAP (human) (UniProt Q12884). As to the kind of experiment: SPR (Biacore 2000), recombinant human FAP as analyte.

Where a chain is given by its changes, count along the chain named. No constants are given. Whether binding was seen depends on the method and setting. Some entries that bind do so weakly or less than the wild type.

B1: humanized MFP5 antibody hVH01+hVK03-version1 (antibody, V domains shown)
VH: QVQLVQSGAEVKKPGASVKVSCKASGYTFTNNGINWLRQAPGQGLEWMGEIYPRSTNTLYAQKFQGRVTITADRSSNTAYMELSSLRSEDTAVYFCARTLTAPFAFWGQGTLVTVSS
VL: QIVLTQSPATLSLSPGERATLSCSASSGVNFMHWYQQKPGQAPRRLIFDTSKLASGIPARFSGSGSGTDYTLTISSLEPEDFAVYYCQQWSFNPPTFGQGTKVEIKR
As to B1, the binding result is “binds”.

B2: humanized MFP5 antibody hVH01+hVK03-version2 (antibody, V domains shown)
VH: B1 VH
VL: B1 VL with R44K, I57V
On to B2, for which the binding result was “binds”.
